Laboratory results published in patent US20240285727A1, “NOVEL THERAPEUTIC PEPTIDES FOR NEURODEGENERATION” (UNIVERSITY OF SOUTHERN CALIFORNIA, priority 2021, published 2024).
These are yes or no findings as the source states them, for the method shown. For some assays here: Binding seen in cells or lysates may run through a third protein. Some binding calls cover weakened binding; strength is not graded here.

Assays:
ATP5 subunit B (ATP5B) = ATP5 subunit B (ATP5B) (UniProt P06576); experiment: cell-free binding (FIG. 9C); method not described
ATP5 subunit O (ATP5O) = target: T1, ATP5 subunit O (ATP5O) (UniProt P48047); experiment: cell-free binding (FIG. 9C); method not described
T1 sequence (looked up): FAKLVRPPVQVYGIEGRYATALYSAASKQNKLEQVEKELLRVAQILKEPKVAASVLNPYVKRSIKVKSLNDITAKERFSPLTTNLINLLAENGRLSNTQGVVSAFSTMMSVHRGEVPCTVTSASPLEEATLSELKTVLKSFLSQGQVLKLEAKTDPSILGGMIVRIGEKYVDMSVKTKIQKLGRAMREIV

[1] = target: T2, mitofilin (IMMT), endogenous, in SH-SY5Y neural cells / cell lysate (human) (UniProt Q16891); experiment: reciprocal co-immunoprecipitation with SHMOOSE antibody or mitofilin antibody, Western blot (FIG. 5B)
T2 sequence (looked up): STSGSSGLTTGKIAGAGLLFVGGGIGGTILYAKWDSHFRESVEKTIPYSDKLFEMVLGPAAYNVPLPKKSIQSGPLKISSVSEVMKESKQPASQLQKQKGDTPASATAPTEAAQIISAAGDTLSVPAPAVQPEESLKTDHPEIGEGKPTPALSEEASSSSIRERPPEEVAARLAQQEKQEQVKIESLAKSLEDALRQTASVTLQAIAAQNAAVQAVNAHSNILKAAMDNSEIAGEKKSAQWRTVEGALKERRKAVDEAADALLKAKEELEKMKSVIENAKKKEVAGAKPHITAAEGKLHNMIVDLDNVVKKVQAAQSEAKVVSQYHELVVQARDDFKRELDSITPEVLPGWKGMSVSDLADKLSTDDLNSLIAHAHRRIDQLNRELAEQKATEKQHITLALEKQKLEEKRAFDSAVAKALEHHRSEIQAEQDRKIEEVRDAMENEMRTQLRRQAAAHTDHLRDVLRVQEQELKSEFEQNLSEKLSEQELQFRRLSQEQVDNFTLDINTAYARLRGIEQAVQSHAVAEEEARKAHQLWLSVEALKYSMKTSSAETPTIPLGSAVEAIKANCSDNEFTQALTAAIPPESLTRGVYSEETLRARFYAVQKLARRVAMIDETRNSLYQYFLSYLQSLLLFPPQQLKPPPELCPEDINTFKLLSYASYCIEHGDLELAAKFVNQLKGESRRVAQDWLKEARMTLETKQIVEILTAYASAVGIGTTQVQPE

[2] = target: T2, mitofilin (IMMT), endogenous, in SH-SY5Y neural cells / cell lysate (human); experiment: summary of co-immunoprecipitation and dot blot results
[3] = target: T2, mitofilin (IMMT), endogenous, in SH-SY5Y neural cells / cell lysate (human); experiment: reciprocal immunoprecipitation from SHMOOSE-treated neural cells, Western blot

binding (ATP5 subunit B (ATP5B)): binds
binding (ATP5 subunit O (ATP5O)): binds
binding [1]: binds
binding [2]: binds
binding [3]: binds
B1: SHMOOSE (Small Human Mitochondrial Open reading frame Over the SErine-tRNA) peptide (peptide)
peptide: MPPCLTTWLSQLLKDNSYPLVLGPKNFGATPNKSNNHAHYYNHPNPDFPNSPHPYHPR
notes: Endogenous SHMOOSE in Western blots is treated as the same molecule; also called wild type SHMOOSE; synthetic SHMOOSE
